{"source": "PubChem BioAssay AID720505 – Drosophila RNAi Screening Center | 2013", "aim": "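Knock-downs that reduce calcium influx once internal stores are emptied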 (primary screen)", "cells": "Drosophila S2R+ cells", "knock-down reagent": "long dsRNA against Drosophila genes", "challenge": "thapsigargin (2 µM) in calcium-free buffer to empty internal stores, then 2 mM calcium added back", "read-out": "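Fluo-4 signal in 384-well plates read on a FLIPR after thapsigargin (2 µM, calcium-free) store depletion and 2 mM calcium add-back; unnormalised mean endpoint per well; screen run twice, selected wells retested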", "direction": "calcium signal and retest calcium signal: higher = more calcium entry after store depletion", "rule for the call": "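Knock-downs counted as hits when calcium entry dropped relative to STIM1 positive and Rho1 negative controls present on each plate; roughly 1500 genes called, with reductions of differing size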", "calls": "active = called as lowering calcium entry; inactive = not called", "note": "The screen tested about 20,000 reagents; shown is a random part of those with a known target gene and a result. Of all reagents, about 2,100 (10%) are marked active. 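Raw plate signals without normalisation; calls rest on control-based scores that were not deposited; replicate 2 separates called from uncalled poorly.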 Unmarked entries are inactive. The numbers tell different reagents against one gene apart. A plus sign joins genes that one reagent is predicted to hit. Not stated in the record: the amount of reagent, the time to read-out."}
{"Gene":"Hsp70Aa + Hsp70Bb + Hsp70Ba + 3 more","reagent no.":1,"calcium signal, replicate 1":"65 (active)","calcium signal, replicate 2":125}
{"Gene":"Elys","reagent no.":1,"calcium signal, replicate 1":131,"calcium signal, replicate 2":76.7}
{"Gene":"CG31798","reagent no.":1,"calcium signal, replicate 1":142,"calcium signal, replicate 2":120}
{"Gene":"Dcr-1 (Dicer-1)","reagent no.":1,"calcium signal, replicate 1":189,"calcium signal, replicate 2":257}
{"Gene":"CG15484","reagent no.":1,"calcium signal, replicate 1":107,"calcium signal, replicate 2":183,"retest calcium signal, replicate 1":94.5,"retest calcium signal, replicate 2":114}
{"Gene":"CG15484","reagent no.":2,"calcium signal, replicate 1":83.6,"calcium signal, replicate 2":97}
{"Gene":"CG18420","reagent no.":1,"calcium signal, replicate 1":83.3,"calcium signal, replicate 2":94.4}
{"Gene":"mia (meiosis I arrest)","reagent no.":1,"calcium signal, replicate 1":129,"calcium signal, replicate 2":104}
{"Gene":"msd5 (mitotic spindle density 5)","reagent no.":1,"calcium signal, replicate 1":88.4,"calcium signal, replicate 2":156}
{"Gene":"CG42676","reagent no.":1,"calcium signal, replicate 1":183,"calcium signal, replicate 2":108}
{"Gene":"CG42676","reagent no.":2,"calcium signal, replicate 1":110,"calcium signal, replicate 2":128}
{"Gene":"CG11449","reagent no.":1,"calcium signal, replicate 1":107,"calcium signal, replicate 2":139}

Individual results from above.
Result of Elys under “calcium signal, replicate 2”: 76.7
Entry of Dcr-1 (Dicer-1) in “calcium signal, replicate 2”: 257
